Measurements from patent publication US11596167B2, “Formulas comprising optimised amino acid profiles” (N.V. Nutricia, priority 2014, dated 2023).

Tested on: term infants
Assay: Indicator amino acid oxidation (IAAO) method: essential amino acid requirement (breakpoint) in formula-fed infants
Format: in vivo, human
Conditions: for Recommended dietary intake mg/100 mL: breakpoint divided by volume intake 150 mL·kg^−1·d^−1, times 100, mg amino acid per 100 mL infant formula; for Recommended dietary intake range g/100 g protein: calculated for protein intake level 0.9-1.4 g/100 mL infant formula; for Recommended dietary intake (IAAO breakpoint) mg kg^−1 day^−1 / Breakpoint (requirement) estimated by IAAO: term infants, biphasic linear regression crossover model; for Recommended dietary intake (IAAO breakpoint) mg kg^−1 day^−1: postnatal age <28 days, amino acid based formula, breakpoint equals recommended intake; for Requirement expressed per 100 mL formula, range: with a 20% variation; for Recommended dietary intake converted into g/100 g protein: protein intake level 0.9-1.4 g/100 mL infant formula; for Breakpoint (requirement) estimated by IAAO: F13CO2 versus test amino acid intake; for Recommended dietary intake: of infant formula, from breakpoint and 150 mL·kg^−1·d^−1 volume intake

CC[C@H](C)[C@H](N)C(=O)O [Isoleucine, isoleucine]
Recommended dietary intake mg/100 mL: 70 mg/100 mL | Recommended dietary intake range g/100 g protein: 5.0-7.8 g/100 g protein | Recommended dietary intake (IAAO breakpoint) mg kg^−1 day^−1: 105 mg/kg/day

CC(C)C[C@H](N)C(=O)O [Leucine, leucine]
Recommended dietary intake mg/100 mL: 93 mg/100 mL | Recommended dietary intake range g/100 g protein: 6.6-10.4 g/100 g protein | Recommended dietary intake (IAAO breakpoint) mg kg^−1 day^−1: 140 mg/kg/day

CSCC[C@H](N)C(=O)O [Methionine, methionine]
Recommended dietary intake mg/100 mL: 25 mg/100 mL | Recommended dietary intake range g/100 g protein: 1.8-2.8 g/100 g protein | Recommended dietary intake (IAAO breakpoint) mg kg^−1 day^−1: 38 mg/kg/day

N[C@@H](Cc1ccccc1)C(=O)O [Phenylalanine, phenylalanine]
Recommended dietary intake mg/100 mL: 39 mg/100 mL | Recommended dietary intake range g/100 g protein: 2.8-4.3 g/100 g protein | Requirement expressed per 100 mL formula, range: 39-46 mg/100 mL | Recommended dietary intake converted into g/100 g protein: 2.8-4.3 g/100 g protein | Requirement of infants with a 20% variation permitted (range with 20% variation (product-allowed variation)): 58-70 mg/kg per day | Recommended dietary intake (IAAO breakpoint) mg kg^−1 day^−1: 58 mg/kg/day | Breakpoint (requirement) estimated by IAAO: 58 mg/kg/day

C[C@@H](O)[C@H](N)C(=O)O [Threonine, threonine]
Recommended dietary intake mg/100 mL: 45 mg/100 mL | Recommended dietary intake range g/100 g protein: 3.2-5.0 g/100 g protein | Requirement expressed per 100 mL formula, range: 45-54 mg/100 mL | Recommended dietary intake: 45 mg/100 mL | Recommended dietary intake converted into g/100 g protein: 3.2-5.0 g/100 g protein | Recommended dietary intake (IAAO breakpoint) mg kg^−1 day^−1: 68 mg/kg/day | Breakpoint (requirement) estimated by IAAO: 68 mg/kg/day

N[C@@H](Cc1c[nH]c2ccccc12)C(=O)O [Tryptophan, tryptophan]
Recommended dietary intake mg/100 mL: 10 mg/100 mL | Recommended dietary intake range g/100 g protein: 0.7-1.1 g/100 g protein | Requirement expressed per 100 mL formula, range: 10-12 mg/100 mL | Recommended dietary intake: 10 mg/100 mL | Recommended dietary intake converted into g/100 g protein: 0.7-1.1 g/100 g protein | Recommended dietary intake (IAAO breakpoint) mg kg^−1 day^−1: 15 mg/kg/day | Breakpoint (requirement) estimated by IAAO: 15 mg/kg/day

CC(C)[C@H](N)C(=O)O [Valine, valine]
Recommended dietary intake mg/100 mL: 73 mg/100 mL | Recommended dietary intake range g/100 g protein: 5.2-8.1 g/100 g protein | Recommended dietary intake (IAAO breakpoint) mg kg^−1 day^−1: 110 mg/kg/day
